The list shows a part of the results, in another mix than the full data. Calls are pooled over several reports, among them a noisy single-well screen. The list shows a part of the results.
Tests used:
Conditions in all cases: stereoisomer not certain
[1] = target: T1, UniProt Q8VG53
T1 sequence (whole entry): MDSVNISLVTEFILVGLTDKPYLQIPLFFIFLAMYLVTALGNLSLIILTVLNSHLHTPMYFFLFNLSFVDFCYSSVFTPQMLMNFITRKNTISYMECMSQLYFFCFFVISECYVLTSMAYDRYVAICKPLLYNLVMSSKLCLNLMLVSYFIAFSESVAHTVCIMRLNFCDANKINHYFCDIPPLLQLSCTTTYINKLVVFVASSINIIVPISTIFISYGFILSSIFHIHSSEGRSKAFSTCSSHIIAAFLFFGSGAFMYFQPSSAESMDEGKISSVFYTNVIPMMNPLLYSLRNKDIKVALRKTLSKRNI
Summary of the method: (§1)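 Each entry records the cell line, G-protein, co-transfected protein and tags used. Methods varied with the source, often transient luciferase assays in mammalian cell lines. A receptor–molecule pair is called responsive (active) if the original authors judged its signal statistically different from baseline and non-responsive (inactive) otherwise.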

Protein sequences, listed by entry. Tags and fused reporters are not part of them. Chains listed by the source or under a name are the forms on record and can include a tag or linker.
UniProt Q8VG28, as listed by the source: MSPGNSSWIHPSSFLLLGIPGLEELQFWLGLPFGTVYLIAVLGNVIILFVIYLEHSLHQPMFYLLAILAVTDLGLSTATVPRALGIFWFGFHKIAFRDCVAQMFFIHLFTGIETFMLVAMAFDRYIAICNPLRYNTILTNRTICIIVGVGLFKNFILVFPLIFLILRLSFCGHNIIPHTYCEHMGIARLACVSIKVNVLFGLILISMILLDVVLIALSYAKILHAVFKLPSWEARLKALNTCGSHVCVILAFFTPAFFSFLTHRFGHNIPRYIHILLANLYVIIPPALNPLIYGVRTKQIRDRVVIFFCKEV

[2] = target: T2, UniProt Q8VG64
T2 sequence (whole entry): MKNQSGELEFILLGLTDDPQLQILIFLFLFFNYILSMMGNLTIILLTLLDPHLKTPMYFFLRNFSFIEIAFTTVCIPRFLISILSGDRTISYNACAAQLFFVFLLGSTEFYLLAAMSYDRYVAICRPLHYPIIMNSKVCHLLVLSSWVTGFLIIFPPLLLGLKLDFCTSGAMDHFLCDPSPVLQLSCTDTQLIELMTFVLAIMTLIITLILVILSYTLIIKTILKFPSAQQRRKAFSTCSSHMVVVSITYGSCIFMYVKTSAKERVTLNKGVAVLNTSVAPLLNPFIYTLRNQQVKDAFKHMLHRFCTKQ
Summary of the method: as §1

[3] = target: T3, UniProt Q8VGB9
T3 sequence (whole entry): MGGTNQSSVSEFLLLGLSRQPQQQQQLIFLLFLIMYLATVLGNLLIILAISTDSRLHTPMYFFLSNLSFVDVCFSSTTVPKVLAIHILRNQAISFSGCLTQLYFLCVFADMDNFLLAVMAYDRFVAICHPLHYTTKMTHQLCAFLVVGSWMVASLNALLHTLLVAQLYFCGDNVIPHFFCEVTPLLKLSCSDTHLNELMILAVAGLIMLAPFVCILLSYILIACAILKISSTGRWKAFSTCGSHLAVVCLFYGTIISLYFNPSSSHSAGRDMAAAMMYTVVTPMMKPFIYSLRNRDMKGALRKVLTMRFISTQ
Summary of the method: as §1

[4] = target: T4, UniProt Q8VGC6
T4 sequence (whole entry): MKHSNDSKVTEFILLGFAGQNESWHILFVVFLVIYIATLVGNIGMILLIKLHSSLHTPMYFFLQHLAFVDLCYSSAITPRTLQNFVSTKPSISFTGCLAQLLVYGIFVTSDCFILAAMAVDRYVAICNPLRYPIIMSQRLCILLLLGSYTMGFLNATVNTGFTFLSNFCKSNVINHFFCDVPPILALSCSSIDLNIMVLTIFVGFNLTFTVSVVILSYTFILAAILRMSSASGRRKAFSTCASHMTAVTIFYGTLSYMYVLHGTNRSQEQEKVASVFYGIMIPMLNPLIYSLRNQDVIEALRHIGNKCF
Summary of the method: as §1

[5] = target: T5, UniProt Q8VGJ3
T5 sequence (whole entry): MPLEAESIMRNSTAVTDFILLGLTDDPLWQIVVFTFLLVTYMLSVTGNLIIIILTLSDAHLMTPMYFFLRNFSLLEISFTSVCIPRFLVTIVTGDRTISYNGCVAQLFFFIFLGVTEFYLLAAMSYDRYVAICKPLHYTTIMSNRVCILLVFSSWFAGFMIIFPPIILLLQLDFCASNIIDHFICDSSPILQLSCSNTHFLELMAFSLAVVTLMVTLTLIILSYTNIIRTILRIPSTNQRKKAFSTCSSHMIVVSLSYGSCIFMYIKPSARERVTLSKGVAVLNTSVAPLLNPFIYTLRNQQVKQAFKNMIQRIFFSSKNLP
Summary of the method: as §1

[6] = target: T6, UniProt Q8VGL0
T6 sequence (whole entry): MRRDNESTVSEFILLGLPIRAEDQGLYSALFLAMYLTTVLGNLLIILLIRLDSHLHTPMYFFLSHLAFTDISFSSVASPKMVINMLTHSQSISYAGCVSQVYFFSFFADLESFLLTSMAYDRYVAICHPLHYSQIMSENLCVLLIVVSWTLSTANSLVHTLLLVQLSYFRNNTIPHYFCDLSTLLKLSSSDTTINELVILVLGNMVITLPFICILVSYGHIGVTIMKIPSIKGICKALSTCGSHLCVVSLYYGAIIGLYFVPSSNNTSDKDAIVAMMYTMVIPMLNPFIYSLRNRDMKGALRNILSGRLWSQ
Summary of the method: as §1

[7] = target: UniProt Q8VG28
Summary of the method: as §1

[8] = target: T7, UniProt Q8VG49
T7 sequence (whole entry): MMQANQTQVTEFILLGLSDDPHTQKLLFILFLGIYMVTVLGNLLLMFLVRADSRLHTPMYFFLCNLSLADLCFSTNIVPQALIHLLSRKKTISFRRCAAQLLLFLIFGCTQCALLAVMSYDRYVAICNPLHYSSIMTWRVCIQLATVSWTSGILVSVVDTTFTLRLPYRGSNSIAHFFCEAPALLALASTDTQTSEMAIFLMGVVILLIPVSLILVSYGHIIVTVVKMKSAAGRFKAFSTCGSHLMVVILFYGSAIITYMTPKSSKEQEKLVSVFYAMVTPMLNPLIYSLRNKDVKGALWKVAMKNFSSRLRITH
Summary of the method: as §1

[9] = target: T8, UniProt Q8VG77
T8 sequence (whole entry): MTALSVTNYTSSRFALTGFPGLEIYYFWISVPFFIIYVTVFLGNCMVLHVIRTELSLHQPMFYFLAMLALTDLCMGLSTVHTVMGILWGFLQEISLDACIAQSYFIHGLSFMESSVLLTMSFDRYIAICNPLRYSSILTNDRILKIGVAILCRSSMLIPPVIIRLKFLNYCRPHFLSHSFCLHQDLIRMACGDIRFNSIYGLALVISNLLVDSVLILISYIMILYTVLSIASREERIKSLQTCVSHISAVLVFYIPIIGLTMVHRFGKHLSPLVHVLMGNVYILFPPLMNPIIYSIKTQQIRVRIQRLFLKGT
Summary of the method: as §1

[10] = target: T9, UniProt Q8VG96
T9 sequence (whole entry): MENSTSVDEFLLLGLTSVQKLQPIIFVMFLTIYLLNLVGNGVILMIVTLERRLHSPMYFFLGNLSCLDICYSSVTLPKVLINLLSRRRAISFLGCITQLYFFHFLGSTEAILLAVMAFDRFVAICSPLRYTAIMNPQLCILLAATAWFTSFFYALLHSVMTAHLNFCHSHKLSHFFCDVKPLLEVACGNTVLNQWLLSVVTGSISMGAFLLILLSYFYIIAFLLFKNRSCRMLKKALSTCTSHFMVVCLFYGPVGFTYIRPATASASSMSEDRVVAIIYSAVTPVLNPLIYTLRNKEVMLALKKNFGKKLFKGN
Summary of the method: as §1

[11] = target: T10, UniProt Q8VGD7
T10 sequence (whole entry): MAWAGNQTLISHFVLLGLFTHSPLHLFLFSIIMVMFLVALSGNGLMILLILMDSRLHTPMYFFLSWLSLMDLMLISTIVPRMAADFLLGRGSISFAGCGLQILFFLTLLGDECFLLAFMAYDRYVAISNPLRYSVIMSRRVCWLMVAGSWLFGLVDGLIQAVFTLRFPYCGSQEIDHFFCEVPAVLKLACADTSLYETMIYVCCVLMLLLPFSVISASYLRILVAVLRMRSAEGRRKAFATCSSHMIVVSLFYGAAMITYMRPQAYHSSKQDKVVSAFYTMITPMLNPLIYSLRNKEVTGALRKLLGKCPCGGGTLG
Summary of the method: as §1

[12] = target: T11, UniProt Q8VGH1
T11 sequence (whole entry): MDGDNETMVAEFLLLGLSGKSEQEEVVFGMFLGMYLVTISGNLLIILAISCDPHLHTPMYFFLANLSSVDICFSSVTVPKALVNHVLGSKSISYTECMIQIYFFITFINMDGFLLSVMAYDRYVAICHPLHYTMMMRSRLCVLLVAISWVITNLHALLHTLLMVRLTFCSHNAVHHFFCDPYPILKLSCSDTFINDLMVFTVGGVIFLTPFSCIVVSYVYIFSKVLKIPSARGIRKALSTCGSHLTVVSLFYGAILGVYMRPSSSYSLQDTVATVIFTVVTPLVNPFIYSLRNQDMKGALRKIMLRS
Summary of the method: as §1

[13] = target: T12, UniProt Q8VGJ1
T12 sequence (whole entry): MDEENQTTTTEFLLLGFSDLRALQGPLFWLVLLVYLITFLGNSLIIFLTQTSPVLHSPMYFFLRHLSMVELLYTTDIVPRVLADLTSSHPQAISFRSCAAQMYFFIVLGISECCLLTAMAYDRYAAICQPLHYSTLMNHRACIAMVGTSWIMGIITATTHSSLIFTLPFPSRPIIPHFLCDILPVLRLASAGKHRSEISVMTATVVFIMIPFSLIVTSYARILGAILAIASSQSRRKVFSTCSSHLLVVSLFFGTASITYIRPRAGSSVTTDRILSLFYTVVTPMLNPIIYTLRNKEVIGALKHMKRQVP
Summary of the method: as §1

[14] = target: T13, UniProt Q8VGJ5
T13 sequence (whole entry): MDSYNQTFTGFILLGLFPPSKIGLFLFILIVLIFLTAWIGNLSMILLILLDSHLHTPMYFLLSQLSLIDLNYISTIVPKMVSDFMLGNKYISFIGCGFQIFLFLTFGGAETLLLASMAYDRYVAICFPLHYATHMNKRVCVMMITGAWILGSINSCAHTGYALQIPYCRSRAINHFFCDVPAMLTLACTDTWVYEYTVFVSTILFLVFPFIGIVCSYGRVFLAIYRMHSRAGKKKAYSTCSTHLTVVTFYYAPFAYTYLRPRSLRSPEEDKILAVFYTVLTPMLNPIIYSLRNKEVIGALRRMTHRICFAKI
Summary of the method: as §1

[15] = target: T14, UniProt Q8VGL7
T14 sequence (whole entry): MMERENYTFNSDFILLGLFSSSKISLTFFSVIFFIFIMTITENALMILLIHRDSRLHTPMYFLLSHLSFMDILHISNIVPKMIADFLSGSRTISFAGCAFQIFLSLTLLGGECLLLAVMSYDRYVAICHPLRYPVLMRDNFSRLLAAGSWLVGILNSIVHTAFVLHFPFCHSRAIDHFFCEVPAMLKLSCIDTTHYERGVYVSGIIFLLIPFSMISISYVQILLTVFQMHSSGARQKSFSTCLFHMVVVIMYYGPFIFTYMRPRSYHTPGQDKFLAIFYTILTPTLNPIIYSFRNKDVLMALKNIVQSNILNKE
Summary of the method: as §1

[16] = target: T15, UniProt Q8VGM2
T15 sequence (whole entry): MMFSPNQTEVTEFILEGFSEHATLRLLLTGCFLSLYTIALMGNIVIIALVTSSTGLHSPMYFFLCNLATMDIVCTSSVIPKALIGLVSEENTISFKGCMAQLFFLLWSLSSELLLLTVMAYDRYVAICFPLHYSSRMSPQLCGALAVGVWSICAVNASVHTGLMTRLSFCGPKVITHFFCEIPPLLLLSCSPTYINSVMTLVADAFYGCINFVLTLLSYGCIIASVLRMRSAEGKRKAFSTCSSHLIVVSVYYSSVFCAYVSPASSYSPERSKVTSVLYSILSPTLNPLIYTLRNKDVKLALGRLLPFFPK
Summary of the method: as §1

[17] = target: T16, UniProt Q8VGP6
T16 sequence (whole entry): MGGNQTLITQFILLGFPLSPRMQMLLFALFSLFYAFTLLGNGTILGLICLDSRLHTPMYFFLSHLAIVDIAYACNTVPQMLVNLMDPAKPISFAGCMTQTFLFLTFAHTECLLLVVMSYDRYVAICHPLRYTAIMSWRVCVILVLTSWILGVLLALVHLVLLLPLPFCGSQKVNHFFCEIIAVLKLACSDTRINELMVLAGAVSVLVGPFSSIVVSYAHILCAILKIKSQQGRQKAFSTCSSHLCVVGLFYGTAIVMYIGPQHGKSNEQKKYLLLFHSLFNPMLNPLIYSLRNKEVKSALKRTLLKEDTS
Summary of the method: as §1

[18] = target: T17, UniProt Q8VGQ3
T17 sequence (whole entry): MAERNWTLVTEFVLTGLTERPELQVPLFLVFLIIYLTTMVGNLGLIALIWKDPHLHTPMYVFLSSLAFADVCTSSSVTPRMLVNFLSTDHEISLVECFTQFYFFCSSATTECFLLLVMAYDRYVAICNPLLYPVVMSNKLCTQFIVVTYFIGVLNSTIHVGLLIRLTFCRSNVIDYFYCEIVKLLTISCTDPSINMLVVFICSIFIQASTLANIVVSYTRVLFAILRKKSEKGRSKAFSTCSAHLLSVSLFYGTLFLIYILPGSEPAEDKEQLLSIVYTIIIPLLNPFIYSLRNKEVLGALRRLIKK
Summary of the method: as §1

Measured: odorant receptor agonist call

CC12CCC(CC1)C(C)(C)O2
inactive: [1] | [2] | [3] | [4] | [5] | [6]

CCCC(=O)O
inactive: [7] | [4]

CC(C)C=O
inactive: [1] | [2] | [3] | [4] | [5] | [6]

C=CC(C)(O)CCC=C(C)C (centres undefined)
inactive: [1] | [2] | [3] | [4] | [5] | [6]

c1cnccn1
inactive: [1] | [2] | [3] | [4] | [5] | [6]

COc1cc(C=O)ccc1O
inactive: [1] | [2] | [3] | [4] | [5] | [6]

CC(=O)C(C)=O
inactive: [1] | [2] | [3] | [4] | [6]
active: [5]

CCCCCCCC=O
not listed: [7]
inactive: all other assays above

O=C1CCCCC1
active: [11] | [14] | [6] | [15] | [16]
not listed: [1] | [2] | [3] | [5] | [7]
inactive: all other assays above

O=C1CCCCCCCCCCCCCCO1
inactive: [1] | [2] | [3] | [4] | [5] | [6]

— the M2OR odorant receptor database
